# Laboratory results as given in the supplement of paper PMC8728848.
# The other results are listed elsewhere or left out.
# B1: Aap lectin (Staphylococcus epidermidis) (protein)
# chain: VNLNYSSPFMSLLSMPADSSSNNTKNTIDIPPTTVKGRDNYDFYGRVDIESNPTDLNATNLTRYNYGQPPGTTTAGAVQFKNQVSFDKDFDFNIRVANNRQSNTTGADGWGFMFSKKDGDDFLKNGGILREKGTPSAAGFRIDTGYYNNDPLDKIQKQAGQGYRGYGTFVKNDSQGNTSKVGSGTPSTDFLNYADNTTNDLDGKFHGQKLNNVNLKYNASNQTFTATYAGKTWTATLSELGLSPTDSYNFLVTSS
# What was measured:
# Test in all cases: glycan array binding signal (z-score within array); higher = stronger binding
# Settings in all cases: glycan notation: IUPAC condensed, linker removed
# [1] = molecular target: Neu5Ac(a2-6)Gal(b1-4)GlcNAc(b1-3)Gal(b1-4)GlcNAc(b1-3)Gal(b1-4)GlcNAc(b1-2)Man(a1-3)[Neu5Ac(a2-6)Gal(b1-4)GlcNAc(b1-3)Gal(b1-4)GlcNAc(b1-3)Gal(b1-4)GlcNAc(b1-2)Man(a1-6)]GalNAc
# Summary of the method: (§1)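 The binding signal is a Z-score computed within each array. Data were drawn from 3228 arrays in the Consortium for Functional Glycomics database, restricted to those with a known protein sequence. Scores were averaged over arrays of the same protein sequence at different concentrations or buffers, and over linkers, and negative values can be taken as non-binding.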
# [2] = molecular target: Neu5Ac(a2-6)Gal(b1-4)GlcNAc(b1-3)Gal(b1-4)GlcNAc(b1-3)GalNAc
# Summary of the method: as §1
# [3] = molecular target: Neu5Ac(a2-6)Gal(b1-4)GlcNAc(b1-3)Gal(b1-4)GlcNAc(b1-3)[Neu5Ac(a2-6)Gal(b1-4)GlcNAc(b1-3)Gal(b1-4)GlcNAc(b1-6)]GalNAc
# Summary of the method: as §1
# [4] = molecular target: Neu5Ac(a2-6)Gal(b1-4)GlcNAc(b1-3)Gal(b1-4)GlcNAc(b1-6)[Gal(b1-3)]GalNAc
# Summary of the method: as §1
# [5] = molecular target: Neu5Ac(a2-6)Gal(b1-4)GlcNAc(b1-3)Gal(b1-4)[Fuc(a1-3)]GlcNAc(b1-3)Gal(b1-4)[Fuc(a1-3)]GlcNAc
# Summary of the method: as §1
# [6] = molecular target: Neu5Ac(a2-6)Gal(b1-4)GlcNAc(b1-3)GalNAc
# Summary of the method: as §1
# [7] = molecular target: Neu5Ac(a2-6)Gal(b1-4)GlcNAc(b1-3)[Neu5Ac(a2-6)Gal(b1-4)GlcNAc(b1-6)]GalNAc
# Summary of the method: as §1
# [8] = molecular target: Neu5Ac(a2-6)Gal(b1-4)GlcNAc(b1-6)GalNAc
# Summary of the method: as §1
# [9] = molecular target: Neu5Ac(a2-6)Gal(b1-4)GlcNAc(b1-6)[Gal(b1-3)GlcNAc(b1-3)]Gal(b1-4)Glc
# Summary of the method: as §1
# [10] = molecular target: Neu5Ac(a2-6)Gal(b1-4)GlcNAc(b1-6)[Gal(b1-3)]GalNAc
# Summary of the method: as §1
# [11] = molecular target: Neu5Ac(a2-6)Gal(b1-4)GlcNAc6S
# Summary of the method: as §1
# Neu5Ac(a2-6)GalNAc = molecular target: Neu5Ac(a2-6)GalNAc
# Summary of the method: as §1
# [12] = molecular target: Neu5Ac(a2-6)GalNAc(b1-4)GlcNAc
# Summary of the method: as §1
# [13] = molecular target: Neu5Ac(a2-6)GalNAc(b1-4)GlcNAc6S
# Summary of the method: as §1
# [14] = molecular target: Neu5Ac(a2-6)GlcNAc(b1-4)GlcNAc
# Summary of the method: as §1
# [15] = molecular target: Neu5Ac(a2-6)GlcNAc(b1-4)GlcNAc(b1-4)GlcNAc
# Summary of the method: as §1
# Neu5Ac(a2-8)Neu5Ac = molecular target: Neu5Ac(a2-8)Neu5Ac
# Summary of the method: as §1
# [16] = molecular target: Neu5Ac(a2-8)Neu5Ac(a2-3)Gal(b1-3)GalNAc(b1-4)[Neu5Ac(a2-3)]Gal(b1-4)Glc
# Summary of the method: as §1
# [17] = molecular target: Neu5Ac(a2-8)Neu5Ac(a2-3)Gal(b1-3)GalNAc(b1-4)[Neu5Ac(a2-8)Neu5Ac(a2-3)]Gal(b1-4)Glc
# Summary of the method: as §1
# [18] = molecular target: Neu5Ac(a2-8)Neu5Ac(a2-3)Gal(b1-4)Glc
# Summary of the method: as §1
# [19] = molecular target: Neu5Ac(a2-8)Neu5Ac(a2-3)Gal(b1-4)GlcNAc
# Summary of the method: as §1
# [20] = molecular target: Neu5Ac(a2-8)Neu5Ac(a2-3)[Gal(b1-3)GalNAc(b1-4)]Gal(b1-4)Glc
# Summary of the method: as §1
# [21] = molecular target: Neu5Ac(a2-8)Neu5Ac(a2-3)[GalNAc(b1-4)]Gal(b1-4)Glc
# Summary of the method: as §1
# [22] = molecular target: Neu5Ac(a2-8)Neu5Ac(a2-8)Neu5Ac
# Summary of the method: as §1
# [23] = molecular target: Neu5Ac(a2-8)Neu5Ac(a2-8)Neu5Ac(a2-3)Gal(b1-4)Glc
# Summary of the method: as §1
# [24] = molecular target: Neu5Ac(a2-8)Neu5Ac(a2-8)Neu5Ac(a2-3)[Gal(b1-3)GalNAc(b1-4)]Gal(b1-4)Glc
# Summary of the method: as §1
# [25] = molecular target: Neu5Ac(a2-8)Neu5Ac(a2-8)Neu5Ac(a2-3)[GalNAc(b1-4)]Gal(b1-4)Glc
# Summary of the method: as §1
# [26] = molecular target: Neu5Ac(a2-8)Neu5Ac(a2-8)Neu5Ac(a2-8)Neu5Ac(a2-3)[GalNAc(b1-4)]Gal(b1-4)Glc
# Summary of the method: as §1
# [27] = molecular target: Neu5Ac(a2-8)Neu5Gc(a2-3)Gal(b1-4)GlcNAc
# Summary of the method: as §1
# [28] = molecular target: Neu5Ac(b2-6)Gal(b1-4)GlcNAc
# Summary of the method: as §1
# Neu5Ac(b2-6)GalNAc = molecular target: Neu5Ac(b2-6)GalNAc
# Summary of the method: as §1
# [29] = molecular target: Neu5Ac9Ac(a2-3)Gal(b1-3)GlcNAc
# Summary of the method: as §1
# [30] = molecular target: Neu5Ac9Ac(a2-3)Gal(b1-4)GlcNAc
# Summary of the method: as §1
# [31] = molecular target: Neu5Ac9Ac(a2-6)Gal(b1-4)GlcNAc
# Summary of the method: as §1
# [32] = molecular target: Neu5Gc(a2-3)Gal(b1-3)GlcNAc
# Summary of the method: as §1
# [33] = molecular target: Neu5Gc(a2-3)Gal(b1-3)[Fuc(a1-4)]GlcNAc
# Summary of the method: as §1
# Neu5Gc(a2-3)Gal(b1-4)Glc = molecular target: Neu5Gc(a2-3)Gal(b1-4)Glc
# Summary of the method: as §1
# [34] = molecular target: Neu5Gc(a2-3)Gal(b1-4)GlcNAc
# Summary of the method: as §1
# [35] = molecular target: Neu5Gc(a2-3)Gal(b1-4)GlcNAc(b1-3)Gal(b1-4)GlcNAc(b1-2)Man(a1-3)[Neu5Gc(a2-3)Gal(b1-4)GlcNAc(b1-3)Gal(b1-4)GlcNAc(b1-2)Man(a1-6)]Man(b1-4)GlcNAc(b1-4)GlcNAc
# Summary of the method: as §1
# [36] = molecular target: Neu5Gc(a2-3)Gal(b1-4)[Fuc(a1-3)]GlcNAc
# Summary of the method: as §1
# [37] = molecular target: Neu5Gc(a2-6)Gal(b1-4)GlcNAc
# Summary of the method: as §1
# Neu5Gc(a2-6)GalNAc = molecular target: Neu5Gc(a2-6)GalNAc
# Summary of the method: as §1
# [38] = molecular target: Neu5Gc(a2-8)Neu5Ac(a2-3)Gal(b1-4)GlcNAc
# Summary of the method: as §1
# [39] = molecular target: Neu5Gc(a2-8)Neu5Gc(a2-3)Gal(b1-4)GlcNAc
# Summary of the method: as §1
# [40] = molecular target: Neu5Gc(a2-8)Neu5Gc(a2-3)Gal(b1-4)GlcNAc(b1-3)Gal(b1-4)GlcNAc
# Summary of the method: as §1
binder,measurement,setting,value
B1,glycan array binding signal (z-score),[1],-0.161
same,glycan array binding signal (z-score),[2],-0.917
same,glycan array binding signal (z-score),[3],2.93
same,glycan array binding signal (z-score),[4],1.51
same,glycan array binding signal (z-score),[5],-0.333
same,glycan array binding signal (z-score),[6],1.75
same,glycan array binding signal (z-score),[7],-0.528
same,glycan array binding signal (z-score),[8],2.29
same,glycan array binding signal (z-score),[9],1.01
same,glycan array binding signal (z-score),[10],-0.066
same,glycan array binding signal (z-score),[11],-0.883
same,glycan array binding signal (z-score),Neu5Ac(a2-6)GalNAc,-0.816
same,glycan array binding signal (z-score),[12],-0.893
same,glycan array binding signal (z-score),[13],-1.16
same,glycan array binding signal (z-score),[14],-0.546
same,glycan array binding signal (z-score),[15],-0.693
same,glycan array binding signal (z-score),Neu5Ac(a2-8)Neu5Ac,-0.919
same,glycan array binding signal (z-score),[16],-0.872
same,glycan array binding signal (z-score),[17],1.01
same,glycan array binding signal (z-score),[18],-0.83
same,glycan array binding signal (z-score),[19],-0.904
same,glycan array binding signal (z-score),[20],-0.121
same,glycan array binding signal (z-score),[21],0.239
same,glycan array binding signal (z-score),[22],-0.51
same,glycan array binding signal (z-score),[23],-0.827
same,glycan array binding signal (z-score),[24],-0.084
same,glycan array binding signal (z-score),[25],0.064
same,glycan array binding signal (z-score),[26],-0.444
same,glycan array binding signal (z-score),[27],-0.896
same,glycan array binding signal (z-score),[28],-0.739
same,glycan array binding signal (z-score),Neu5Ac(b2-6)GalNAc,-0.527
same,glycan array binding signal (z-score),[29],0.704
same,glycan array binding signal (z-score),[30],-0.7
same,glycan array binding signal (z-score),[31],-0.754
same,glycan array binding signal (z-score),[32],0.725
same,glycan array binding signal (z-score),[33],0.428
same,glycan array binding signal (z-score),Neu5Gc(a2-3)Gal(b1-4)Glc,-0.1
same,glycan array binding signal (z-score),[34],-0.511
same,glycan array binding signal (z-score),[35],0.099
same,glycan array binding signal (z-score),[36],1.29
same,glycan array binding signal (z-score),[37],-0.275
same,glycan array binding signal (z-score),Neu5Gc(a2-6)GalNAc,-0.523
same,glycan array binding signal (z-score),[38],-0.74
same,glycan array binding signal (z-score),[39],1.51
same,glycan array binding signal (z-score),[40],-0.285

# A portion from further up, as a working copy:
binder,measurement,setting,value
B1,glycan array binding signal (z-score),[13],-1.16
same,glycan array binding signal (z-score),[14],-0.546
same,glycan array binding signal (z-score),[15],-0.693
